Results from PubChem BioAssay (NCATS).
This list was built around the results that the source calls inconclusive (neither active nor inactive); the mix of calls is not that of the screen. For part of these data: Potencies of inconclusive entries are doubtful fits and often do not repeat. Active and inactive are the calls of the source. Calls follow the shape of the dose curve; as a rule, active = well fitted curve in the direction sought with a large enough effect; inconclusive = small, poorly fitted or top-dose-only effect, or another doubt; inactive = no such curve, though single readings can be large; an effect the other way counts as inactive or inconclusive.

Columns and labels:
[1] = Quantitative High-Throughput drug screen in 47 multiple myeloma cell lines against the NCATS MIPE library collection: ARP1_JJKsccF8 cell viability assay (AID 1918928; also: nearly all actives have a fitted effect of over 40% in size); conditions: ARP1 myeloma cells viability, CellTiter-Glo ATP, 48 h; viability: at 45.8 µM (top of the series)
In short: (§1)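 Cell viability inhibition in this qHTS is measured via ATP content (CellTiter-Glo) after 48 h drug exposure at 37 °C. Wells hold 500 cells; DMSO-treated wells define 100% and medium-only wells 0%.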

[2] = Quantitative High-Throughput drug screen in 47 multiple myeloma cell lines against the NCATS MIPE library collection: KMM1_JCRB cell viability assay (AID 1918960); conditions: KMM1 myeloma viability, CellTiter-Glo ATP luminescence, 48 h; viability (% of DMSO): at 45.8 µM (top of the series); also: nearly all actives have a fitted effect of over 30% in size
In short: as §1

[3] = Quantitative High-Throughput drug screen in 47 multiple myeloma cell lines against the NCATS MIPE library collection: Karpas417_ECACC cell viability assay (AID 1918961); conditions: Karpas417 myeloma viability, CellTiter-Glo ATP luminescence, 48 h; viability (% of DMSO): at 45.8 µM (top of the series) unless noted
In short: (§2)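 CellTiter-Glo ATP luminescence gave viability after 48 h compound treatment at 37C of 500 multiple myeloma cells per well. Normalisation used DMSO-only wells as 100% and media-only wells as 0% viability; primary qHTS of approved and investigational drugs.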

[4] = Quantitative High-Throughput drug screen in 47 multiple myeloma cell lines against the NCATS MIPE library collection: KHM11_PLB cell viability assay (AID 1918962); conditions: KHM11 myeloma cell viability, CellTiter-Glo ATP luminescence, 48 h; viability, % of DMSO control: at 45.8 µM (top of the series); also: nearly all actives have a fitted effect of over 35% in size
In short: (§3)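 Myeloma cells (500 per well) were exposed to MIPE 4.0 compounds by pin transfer and incubated 48 hours at 37C, 5% CO2. Viability was read as ATP by CellTiter-Glo luminescence, normalised to DMSO (100%) and media-only (0%) wells.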

[5] = Quantitative High-Throughput drug screen in 47 multiple myeloma cell lines against the NCATS MIPE library collection: JIM1_ECACC cell viability assay (AID 1918964); conditions: JIM1 myeloma viability, CellTiter-Glo ATP luminescence, 48 h; viability (% of DMSO): at 45.8 µM (top of the series)
In short: (§4)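 Myeloma cell lines, 500 cells per well, exposed to MIPE 4.0 library compounds for 48 h at 37C, 5% CO2. Viability from ATP by CellTiter-Glo luminescence; normalised to DMSO (100%) and media-only (0%) wells.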

[6] = Quantitative High-Throughput drug screen in 47 multiple myeloma cell lines against the NCATS MIPE library collection: INA6_PLB cell viability assay (AID 1918965; also: nearly all actives have a fitted effect of over 55% in size); conditions: INA6 myeloma viability, CellTiter-Glo ATP luminescence, 48 h; viability (% of control): at 45.8 µM (top of the series)
In short: as §2

[7] = Quantitative High-Throughput drug screen in 47 multiple myeloma cell lines against the NCATS MIPE library collection: ARD_JJKsccE7 cell viability assay (AID 1918929); conditions: ARD myeloma cell line viability, CellTiter-Glo, 48 h; viability: at 45.8 µM (top of the series) unless noted
In short: as §4

[8] = Quantitative High-Throughput drug screen in 47 multiple myeloma cell lines against the NCATS MIPE library collection: Karpas620_DSMZ cell viability assay (AID 1918959); conditions: Karpas620 myeloma viability, CellTiter-Glo ATP luminescence, 48 h; viability (% of DMSO): at 45.8 µM (top of the series); also: nearly all actives have a fitted effect of over 30% in size
In short: as §3

[9] = Quantitative High-Throughput drug screen in 47 multiple myeloma cell lines against the NCATS MIPE library collection: JIM3_ECACC cell viability assay (AID 1918963; also: nearly all actives have a fitted effect of over 35% in size); conditions: JIM3 myeloma viability, CellTiter-Glo ATP, 48 h; viability, percent of control: at 45.8 µM (top of the series)
In short: as §3
Potency is read from the fitted curve at half-maximal effect.

SMILES: C#Cc1cccc(Nc2ncnc3cc(OC)c(OCCCCCCC(=O)NO)cc23)c1
- Potency [1]: active: 0.118 µM
- Potency [2]: active: 0.0526 µM
- Potency [3]: inconclusive: 0.0209 µM [cytotoxic, full curve, poor fit]
- Potency [4]: active: 0.372 µM
- Potency [5]: active: 0.0662 µM

SMILES: CCc1cnn2c(NCc3ccc[n+]([O-])c3)cc(N3CCCC[C@@H]3CCO)nc12
- Potency [1]: active: 0.0264 µM
- Potency [2]: active: 0.0148 µM
- Potency [3]: active: 0.0209 µM
- Potency [5]: active: 0.0148 µM
- Potency [6]: active: 0.0235 µM

SMILES: COc1cc(N2CCC(C(N)=O)CC2)ccc1Nc1nc(N)c(Cl)c(Nc2ccccc2S(=O)(=O)C(C)C)n1
- Potency [7]: active: 0.059 µM
- Potency [8]: inconclusive: 0.332 µM [cytotoxic, full curve]
- Potency [2]: inconclusive: 0.0372 µM [cytotoxic, full curve]
- Potency [4]: inconclusive: 13.2 µM [cytotoxic, partial curve, poor fit]
- Potency [5]: active: 0.0469 µM

SMILES: Cn1cc(C=CC(=O)c2cccc(F)c2)cc1C=CC(=O)NO
- Potency [7]: active: 16.6 µM
- Potency [8]: active: 13.2 µM
- Potency [3]: active: 13.2 µM
- Potency [4]: inactive
- Potency [5]: inconclusive: 16.6 µM [cytotoxic, partial curve, poor fit]

SMILES: COC(=O)[C@@H]1CC2=CC(=O)CC[C@]2(C)[C@@]23O[C@@H]2C[C@@]2(C)[C@H](CC[C@@]24CCC(=O)O4)[C@@H]13
- Potency [1]: inconclusive: 0.0166 µM [rising, full curve, poor fit]
- Potency [8]: inactive
- Potency [4]: inactive
- Potency [5]: inactive
- Potency [6]: inactive

SMILES: COc1cc(Cl)cn2c(-c3cccc(NC4CNC4)n3)cnc12
- Potency [1]: inactive
- Potency [8]: inconclusive: 33.2 µM [cytotoxic, single point]
- Potency [3]: inconclusive: 23.5 µM [cytotoxic, partial curve, poor fit]
- Potency [5]: active: 4.18 µM

SMILES: C#Cc1cccc(Nc2ncnc3cc(OCCOC)c(OCCOC)cc23)c1
- Potency [1]: inconclusive: 23.5 µM [cytotoxic, partial curve, poor fit]
- Potency [2]: inconclusive: 5.9 µM [cytotoxic, partial curve, poor fit]
- Potency [3]: inconclusive: 0.59 µM [cytotoxic, partial curve, poor fit]
- Potency [4]: active: 3.32 µM
- Potency [5]: inconclusive: 0.418 µM [cytotoxic, full curve, poor fit]

SMILES: Cc1ncc(-c2ccnc(Nc3ccc(S(C)(=O)=O)cc3)n2)n1C(C)C
- Potency [1]: active: 2.96 µM
- Potency [3]: inconclusive: 1.66 µM [cytotoxic, full curve, poor fit]
- Potency [4]: active: 1.66 µM
- Potency [5]: active: 2.35 µM

SMILES: CCn1c(-c2nonc2N)nc2cnc(Oc3cccc(NC(=O)c4ccc(OCCN5CCOCC5)cc4)c3)cc21
- Potency [7]: active: 5.9 µM
- Potency [8]: inconclusive: 9.35 µM [cytotoxic, partial curve]
- viability (% of DMSO) [3]: inconclusive: 0.635% [cytotoxic]
- Potency [4]: inconclusive: 11.8 µM [cytotoxic, partial curve]
- Potency [9]: active: 20.9 µM

SMILES: CCOc1cc(N2CCC(O)CC2)ccc1Nc1ncc2c(n1)N(C)c1ccccc1C(=O)N2C
- Potency [1]: active: 10.5 µM
- Potency [8]: active: 0.332 µM
- Potency [3]: inconclusive: 5.26 µM [cytotoxic, partial curve, poor fit]
- Potency [4]: active: 0.935 µM
- Potency [5]: inconclusive: 0.418 µM [cytotoxic, full curve, poor fit]

SMILES: COc1cc(Nc2ncc(F)c(Nc3ccc4c(n3)N(COP(=O)(O)O)C(=O)C(C)(C)O4)n2)cc(OC)c1OC
- Potency [1]: inconclusive: 20.9 µM [cytotoxic, partial curve, poor fit]
- Potency [8]: inconclusive: 5.26 µM [cytotoxic, full curve]
- Potency [3]: active: 1.05 µM
- Potency [4]: active: 1.48 µM
- Potency [5]: active: 1.18 µM

SMILES: CCCCCCCN(CC)CCCC(O)c1ccc(NS(C)(=O)=O)cc1 (configuration not stated)
- Potency [7]: active: 20.9 µM
- Potency [8]: inconclusive: 16.6 µM [cytotoxic, partial curve]
- Potency [2]: active: 20.9 µM
- Potency [3]: inconclusive: 20.9 µM [cytotoxic, partial curve, poor fit]
- Potency [4]: inconclusive: 18.7 µM [cytotoxic, partial curve, poor fit]
- Potency [5]: inconclusive: 37.2 µM [cytotoxic, single point]

SMILES: NC1(C(=O)N[C@@H](CCO)c2ccc(Cl)cc2)CCN(c2ncnc3[nH]ccc23)CC1
- Potency [7]: active: 0.0469 µM
- Potency [8]: active: 2.64 µM
- Potency [2]: active: 0.118 µM
- Potency [3]: inconclusive: 37.2 µM [rising, partial curve, poor fit]
- Potency [4]: active: 1.87 µM
- Potency [5]: active: 0.209 µM

SMILES: CN(C)CCOc1ccc(C(=C(CCCl)c2ccccc2)c2ccccc2)cc1
- Potency [7]: inactive
- Potency [8]: inconclusive: 0.001 µM [cytotoxic]
- Potency [2]: inactive
- Potency [3]: inactive
- Potency [4]: inactive
- Potency [9]: inconclusive: 5.9 µM [cytotoxic, partial curve, poor fit]
- Potency [5]: inactive
